According to PMC11827635 (Science Advances, 2025):
Results are given in words; binding and its absence hold for the method and conditions named. Some results given as binding are weak or reduced against the parent protein; the word gives no strength.

Chains of the proteins cited; added tags and fusions are not shown. Lines headed by an entry give the natural chain unless they say otherwise; changes in a name come on top. A line that says so, or that is headed by a name, gives the form on record, which may keep a tag or linker.
UniProt Q02248: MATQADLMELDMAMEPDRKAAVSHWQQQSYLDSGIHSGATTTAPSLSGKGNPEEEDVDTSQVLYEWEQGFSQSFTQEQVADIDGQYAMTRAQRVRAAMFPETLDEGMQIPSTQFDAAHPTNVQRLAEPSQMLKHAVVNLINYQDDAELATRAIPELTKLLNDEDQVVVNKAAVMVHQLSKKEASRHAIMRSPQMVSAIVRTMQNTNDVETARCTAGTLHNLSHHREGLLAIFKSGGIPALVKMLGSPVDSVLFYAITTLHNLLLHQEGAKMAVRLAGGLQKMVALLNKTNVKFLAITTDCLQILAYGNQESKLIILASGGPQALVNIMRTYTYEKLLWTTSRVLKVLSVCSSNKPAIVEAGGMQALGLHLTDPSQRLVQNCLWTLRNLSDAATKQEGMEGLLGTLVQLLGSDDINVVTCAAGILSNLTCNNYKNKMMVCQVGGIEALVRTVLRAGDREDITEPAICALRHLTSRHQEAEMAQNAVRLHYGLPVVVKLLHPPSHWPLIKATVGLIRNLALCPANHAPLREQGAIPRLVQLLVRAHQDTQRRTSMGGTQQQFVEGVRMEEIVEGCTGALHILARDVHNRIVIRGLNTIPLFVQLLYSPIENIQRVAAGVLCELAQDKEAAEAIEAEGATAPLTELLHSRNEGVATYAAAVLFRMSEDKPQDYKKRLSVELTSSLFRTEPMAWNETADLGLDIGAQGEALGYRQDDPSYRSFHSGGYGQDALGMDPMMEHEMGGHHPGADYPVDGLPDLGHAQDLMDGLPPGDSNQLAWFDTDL
UniProt P26231: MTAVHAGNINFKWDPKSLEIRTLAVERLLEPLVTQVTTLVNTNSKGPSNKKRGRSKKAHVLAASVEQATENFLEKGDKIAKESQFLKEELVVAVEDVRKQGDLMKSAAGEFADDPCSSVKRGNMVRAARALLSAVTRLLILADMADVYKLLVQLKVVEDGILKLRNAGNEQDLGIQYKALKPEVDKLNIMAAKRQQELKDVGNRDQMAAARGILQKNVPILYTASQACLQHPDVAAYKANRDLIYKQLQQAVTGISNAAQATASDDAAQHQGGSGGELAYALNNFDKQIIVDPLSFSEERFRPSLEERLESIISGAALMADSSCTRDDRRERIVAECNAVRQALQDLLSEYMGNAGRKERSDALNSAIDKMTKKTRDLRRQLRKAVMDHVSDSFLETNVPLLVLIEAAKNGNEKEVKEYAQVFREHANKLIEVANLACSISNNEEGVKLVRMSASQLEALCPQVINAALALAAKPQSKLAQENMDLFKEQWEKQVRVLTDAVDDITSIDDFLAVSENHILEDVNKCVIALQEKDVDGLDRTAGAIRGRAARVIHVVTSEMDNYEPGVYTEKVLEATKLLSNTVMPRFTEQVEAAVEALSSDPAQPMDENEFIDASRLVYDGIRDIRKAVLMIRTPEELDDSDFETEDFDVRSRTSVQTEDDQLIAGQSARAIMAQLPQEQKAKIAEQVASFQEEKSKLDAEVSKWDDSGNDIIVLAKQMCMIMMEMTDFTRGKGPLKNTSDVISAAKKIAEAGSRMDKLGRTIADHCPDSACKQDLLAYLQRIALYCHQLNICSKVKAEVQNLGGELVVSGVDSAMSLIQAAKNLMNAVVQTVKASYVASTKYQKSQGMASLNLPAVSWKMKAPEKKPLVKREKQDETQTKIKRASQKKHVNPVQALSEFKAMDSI
αE-catenin α(CA), as it stands in the tetramer and pentamer (P26231, form named): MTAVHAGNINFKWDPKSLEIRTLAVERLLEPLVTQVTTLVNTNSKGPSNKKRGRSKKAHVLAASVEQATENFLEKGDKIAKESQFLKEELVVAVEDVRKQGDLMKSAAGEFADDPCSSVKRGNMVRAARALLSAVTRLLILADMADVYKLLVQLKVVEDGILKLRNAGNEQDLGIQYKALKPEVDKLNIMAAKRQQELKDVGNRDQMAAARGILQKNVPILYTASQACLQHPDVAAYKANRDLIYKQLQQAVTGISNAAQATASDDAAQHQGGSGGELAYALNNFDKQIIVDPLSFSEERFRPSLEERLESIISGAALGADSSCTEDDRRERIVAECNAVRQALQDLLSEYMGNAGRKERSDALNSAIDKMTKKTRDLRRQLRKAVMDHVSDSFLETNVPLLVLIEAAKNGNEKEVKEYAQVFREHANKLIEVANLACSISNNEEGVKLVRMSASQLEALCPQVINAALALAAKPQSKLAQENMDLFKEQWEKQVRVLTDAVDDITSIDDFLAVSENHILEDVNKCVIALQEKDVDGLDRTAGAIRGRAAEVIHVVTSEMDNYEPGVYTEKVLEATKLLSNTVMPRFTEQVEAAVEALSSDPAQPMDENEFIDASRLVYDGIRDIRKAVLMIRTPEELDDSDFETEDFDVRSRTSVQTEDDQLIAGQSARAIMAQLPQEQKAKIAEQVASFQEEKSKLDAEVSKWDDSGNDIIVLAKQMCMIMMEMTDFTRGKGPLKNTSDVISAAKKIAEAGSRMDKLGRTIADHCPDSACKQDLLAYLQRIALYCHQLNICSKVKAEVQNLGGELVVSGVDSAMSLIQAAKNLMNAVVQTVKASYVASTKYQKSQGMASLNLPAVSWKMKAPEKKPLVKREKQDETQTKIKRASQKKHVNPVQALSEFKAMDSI
vinculin(T12) (P18206-2, form named): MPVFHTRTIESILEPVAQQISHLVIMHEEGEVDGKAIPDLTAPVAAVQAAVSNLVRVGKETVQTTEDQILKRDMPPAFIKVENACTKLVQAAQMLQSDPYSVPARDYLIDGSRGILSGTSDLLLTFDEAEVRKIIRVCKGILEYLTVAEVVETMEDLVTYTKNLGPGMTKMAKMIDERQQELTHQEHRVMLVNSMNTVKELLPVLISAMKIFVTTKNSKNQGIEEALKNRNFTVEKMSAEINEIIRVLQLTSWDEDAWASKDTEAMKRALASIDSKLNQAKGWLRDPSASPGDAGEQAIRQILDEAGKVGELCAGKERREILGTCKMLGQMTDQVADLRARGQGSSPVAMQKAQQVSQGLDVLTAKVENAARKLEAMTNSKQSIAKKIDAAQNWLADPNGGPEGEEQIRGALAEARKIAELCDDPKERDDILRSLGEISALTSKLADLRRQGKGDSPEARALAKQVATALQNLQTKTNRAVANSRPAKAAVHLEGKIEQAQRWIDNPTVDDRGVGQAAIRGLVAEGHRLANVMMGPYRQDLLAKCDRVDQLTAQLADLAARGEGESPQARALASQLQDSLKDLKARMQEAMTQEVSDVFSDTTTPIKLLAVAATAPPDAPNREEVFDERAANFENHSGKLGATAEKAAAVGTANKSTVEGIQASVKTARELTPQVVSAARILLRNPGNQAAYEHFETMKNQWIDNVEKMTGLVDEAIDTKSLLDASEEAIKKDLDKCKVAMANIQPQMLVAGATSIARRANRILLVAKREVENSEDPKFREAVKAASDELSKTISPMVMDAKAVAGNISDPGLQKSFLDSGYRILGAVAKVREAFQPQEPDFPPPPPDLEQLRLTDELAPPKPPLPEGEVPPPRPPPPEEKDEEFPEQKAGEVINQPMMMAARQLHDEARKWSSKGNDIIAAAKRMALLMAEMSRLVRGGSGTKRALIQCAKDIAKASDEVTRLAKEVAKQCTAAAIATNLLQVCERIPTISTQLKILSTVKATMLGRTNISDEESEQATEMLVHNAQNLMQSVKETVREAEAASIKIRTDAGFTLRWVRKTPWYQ

Key:
[1] = target: full-length β-catenin (mouse) (UniProt Q02248); test: co-purification of co-expressed proteins (affinity, size exclusion); co-expressed in FreeStyle 293-F; trimer: anti-GFP beads, TEV, MonoQ, Superdex 200; tetramer: Flag M2 beads then anti-GFP beads, TEV, Superose 6; 10 mM tris-HCl pH 8.0, 100 mM NaCl, 3 mM DTT
[2] = target: αE-catenin α(CA), as it stands in the tetramer and pentamer (mouse) (UniProt P26231); test: as above

| binding [1] | binding [2] | Substance |
| --- | --- | --- |
| binds | – | full-length αE-catenin (from UniProt P26231 1-906) |
| – | binds | vinculin(T12) (from UniProt P18206-2 1-1066) |
